From PubChem BioAssay AID328 (DTP/NCI, 2004)
The list does not hold the whole screen: it is rich in T/C values a quarter to a half above the control, in often repeated tests (any T/C) and in doses without a T/C. Further doses and runs are listed elsewhere. T/C gives the treated animals as a percentage of the vehicle group. Some entries give survivors of the animals treated and no T/C: the source files T/C as zero there, which appears to mark a toxic dose or a test without result, not a measured value. Some survivor counts are full or nearly so, which does not show that the dose was tolerated: survival well below the control is almost never listed, so the zero probably covers shortened survival too. Survivors were counted at the toxicity check, usually on the fifth day, unless a day is given; later deaths do not show. Schedules are NCI's codes, taken here to give the interval after Q, in days (D) or hours (H), and the number of doses after X. Some doses were run more than once; their values stand side by side, smallest first. Where survival is the endpoint, the PubChem record calls one and a half times the control and up active, and a quarter to a half above the control has no call in these data; cut-offs in other NCI protocols can differ. Marks such as (2×) give the number of equal values in this list. Some T/C values are followed by the survivors on the day toxicity was checked, most often the fifth; where none is given, no animal had died by that day. Starred links: 1 amine or outer side, 2 acyl side, 3 side chain; linkers in the order of their positions; H or OH if unused. Positions of bridges follow the written chain, without caps; N, C: chain ends. Non-standard residues stand in square brackets, D forms with d. Residues, ends and D or L forms follow the SMILES beside them. Chains are numbered I, II in the order given. Actinocin(9to1) = Cc1c2oc3c(C)ccc(C(=O)[*:1])c3nc-2c(C(=O)[*:2])c(N)c1=O; NMeV = CN[CH](C(=O)O)C(C)C; Aze = O=C(O)[CH]1CCN1; Sar = CNCC(=O)O

Tested on: BDF1 mice, P388 leukemia ip, median survival T/C
Test: NCI In Vivo Anticancer Drug Screen. Data for tumor model P388 Leukemia (intraperitoneal) in B6D2F1 (BDF1) mice
Conditions: T/C endpoint: median survival time, higher T/C = longer survival
Outline: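 In tumour-bearing mice, survival after compound treatment is set against the vehicle group and given as a quotient.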

[1] = dose: 200.0 mg/kg/injection, schedule: Q01DX009 (ip), vehicle: saline with Tween-80
[2] = dose: 300.0 mg/kg/injection, schedule: Q01DX009 (ip), vehicle: saline with Tween-80
[3] = dose: 200.0 mg/kg/injection, schedule: Q01DX009 (ip), vehicle: saline
[4] = dose: 400.0 mg/kg/injection, schedule: Q01DX009 (ip), vehicle: Klucel (hydroxypropylcellulose) (HPC)
[5] = dose: 25.0 mg/kg/injection, schedule: Q01DX009 (ip), vehicle: water
[6] = dose: 50.0 mg/kg/injection, schedule: Q01DX009 (ip), vehicle: Klucel (hydroxypropylcellulose) (HPC)
[7] = dose: 400.0 mg/kg/injection, schedule: Q01DX009 (ip), vehicle: water
[8] = dose: 400.0 mg/kg/injection, schedule: Q04DX003 (ip), vehicle: saline with Tween-80

COc1ccc(/C=C/C(=O)c2ccc3c(c2)OCO3)cc1OC
T/C (dose: 88.0 mg/kg/injection, schedule: Q01DX009 (ip), vehicle: saline with Tween-80): 127 % of control | T/C (dose: 132.0 mg/kg/injection, schedule: Q01DX009 (ip), vehicle: saline with Tween-80): 127 % of control | T/C (dose: 133.0 mg/kg/injection, schedule: Q01DX009 (ip), vehicle: saline with Tween-80): 127 % of control | T/C (dose: 150.0 mg/kg/injection, schedule: Q01DX009 (ip), vehicle: saline with Tween-80): 127 % of control | T/C [1]: 136 % of control (2×) | T/C [2]: 141 and 145 % of control

CN(C)[C@@H]1C(=O)C(C(=O)NCN2CCN(C(=N)N=C(N)N)CC2)=C(O)[C@@]2(O)C(=O)C3=C(O)c4c(O)cccc4[C@@](C)(O)[C@H]3C[C@@H]12
T/C (dose: 0.5 mg/kg/injection, schedule: Q04DX003 (ip), vehicle: saline): 132 % of control

CC1=C[S+](c2ccccc2)c2cccc3cc4ccccc4c1c23 (stereo not given)
T/C (dose: 0.4 mg/kg/injection, schedule: Q01DX009 (ip), vehicle: saline with Tween-80): 140 % of control [5 of 6 alive] | T/C (dose: 0.62 mg/kg/injection, schedule: Q01DX009 (ip), vehicle: saline with Tween-80): 145 % of control | T/C (dose: 0.63 mg/kg/injection, schedule: Q01DX009 (ip), vehicle: saline with Tween-80): 141 % of control | T/C (dose: 1.25 mg/kg/injection, schedule: Q01DX009 (ip), vehicle: saline with Tween-80): 133 % of control

CN(C)P(=O)(N(C)C)N(C)CCN(C)P(=O)(N(C)C)N(C)C
survivor count (dose: 100.0 mg/kg/injection, schedule: Q01DX009 (ip), vehicle: saline): 4 of 6 | survivor count [3]: 1 of 6

O=C1NC(=O)C(Cc2ccccc2)(c2ccccc2)N1 (stereo not given)
survivor count [2]: 1 of 6

CC(=O)O[C@]1(C(C)=O)CC[C@H]2[C@@H]3C=C(Cl)C4=CC(=O)[C@@H]5C[C@@H]5[C@]4(C)[C@H]3CC[C@@]21C
survivor count [4]: 6 of 6

COc1cccc(OC)c1C(c1c(OC)cccc1OC)c1c(OC)cccc1OC
T/C (dose: 50.0 mg/kg/injection, schedule: Q04DX003 (ip), vehicle: saline with Tween-80): 129 % of control | survivor count [1]: 1 of 6 | survivor count (dose: 400.0 mg/kg/injection, schedule: Q01DX009 (ip), vehicle: saline with Tween-80): 1 of 6

O=C1c2ccccc2C(=O)N1CC[P+](c1ccccc1)(c1ccccc1)c1ccccc1
T/C (dose: 1.56 mg/kg/injection, schedule: Q01DX009 (ip), vehicle: water): 125 % of control | T/C (dose: 3.12 mg/kg/injection, schedule: Q01DX009 (ip), vehicle: water): 135 % of control | T/C [5]: 127 % of control | survivor count [5]: 1 of 6 | T/C (dose: 25.0 mg/kg/injection, schedule: Q04DX003 (ip), vehicle: water, evaluated on day 23): 125 % of control | T/C (dose: 25.0 mg/kg/injection, schedule: Q04DX003 (ip), vehicle: water, evaluated on day 30): 137 % of control [5 of 6 alive] | survivor count [6]: 3 of 6 | survivor count (dose: 50.0 mg/kg/injection, schedule: Q01DX009 (ip), vehicle: water): 4 of 6 and 6 of 6 | survivor count (dose: 50.0 mg/kg/injection, schedule: Q04DX003 (ip), vehicle: water): 3 of 6 | survivor count (dose: 100.0 mg/kg/injection, schedule: Q01DX009 (ip), vehicle: water): 4 of 6 | survivor count (dose: 200.0 mg/kg/injection, schedule: Q01DX009 (ip), vehicle: water): 0 of 6 | survivor count [7]: 0 of 6

O=NN(CCCl)C(=O)Nc1c[nH]c(=O)[nH]c1=O
T/C (dose: 0.19 mg/kg/injection, schedule: Q04DX003 (ip), vehicle: saline with Tween-80): 130 % of control | T/C (dose: 1.56 mg/kg/injection, schedule: Q04DX003 (ip), vehicle: saline with Tween-80): 133 % of control | survivor count (dose: 50.0 mg/kg/injection, schedule: Q01DX009 (ip), vehicle: saline with Tween-80): 6 of 6 | survivor count (dose: 100.0 mg/kg/injection, schedule: Q04DX003 (ip), vehicle: saline with Tween-80): 6 of 6 | survivor count (dose: 200.0 mg/kg/injection, schedule: Q04DX003 (ip), vehicle: saline with Tween-80): 6 of 6 | survivor count [8]: 5 of 6

O=C1NNC2CCCCC2O1 (stereo not given)
survivor count [1]: 6 of 6

O=[N+]([O-])c1cc([N+](=O)[O-])c(Br)cc1Cl
survivor count (dose: 40.0 mg/kg/injection, schedule: Q01DX009 (ip), vehicle: Klucel (hydroxypropylcellulose) (HPC)): 0 of 6

O=CNNC(=O)c1ccccn1
survivor count [3]: 6 of 6 | survivor count [8]: 0 of 6

BrCCN(CCBr)c1ccc2c3c(cccc13)-c1ccccc1-2
T/C (dose: 1.56 mg/kg/injection, schedule: Q01DX009 (ip), vehicle: Klucel (hydroxypropylcellulose) (HPC)): 145 % of control | T/C (dose: 13.0 mg/kg/injection, schedule: Q01DX009 (ip), vehicle: Klucel (hydroxypropylcellulose) (HPC)): 146 % of control | T/C (dose: 105.0 mg/kg/injection, schedule: Q01DX009 (ip), vehicle: Klucel (hydroxypropylcellulose) (HPC)): 130 % of control | survivor count (dose: 264.0 mg/kg/injection, schedule: Q04DX003 (ip), vehicle: saline with Tween-80): 6 of 6

Cc1c(N)cc([N+](=O)[O-])c(C)c1[N+](=O)[O-]
survivor count [1]: 3 of 6

O=Cc1cn[nH]c1-c1ccccc1
survivor count [4]: 6 of 6 | survivor count (dose: 400.0 mg/kg/injection, schedule: Q04DX003 (ip), vehicle: Klucel (hydroxypropylcellulose) (HPC)): 6 of 6

CCOC(=O)CNC(=O)N(CC)C12CC3CC(CC(C3)C1)C2
T/C (dose: 200.0 mg/kg/injection, schedule: Q01DX009 (ip), vehicle: Klucel (hydroxypropylcellulose) (HPC)): 136 % of control [5 of 6 alive]

COc1ccc2c3csc4ccccc4c-3nc2c1
survivor count [6]: 5 of 6 | survivor count (dose: 50.0 mg/kg/injection, schedule: Q04DX003 (ip), vehicle: Klucel (hydroxypropylcellulose) (HPC)): 2 of 6 | survivor count (dose: 150.0 mg/kg/injection, schedule: Q04DX003 (ip), vehicle: Klucel (hydroxypropylcellulose) (HPC)): 4 of 6 | survivor count (dose: 225.0 mg/kg/injection, schedule: Q04DX003 (ip), vehicle: Klucel (hydroxypropylcellulose) (HPC)): 0 of 6 | survivor count (dose: 300.0 mg/kg/injection, schedule: Q01DX001 (ip), vehicle: Klucel (hydroxypropylcellulose) (HPC)): 1 of 6 | survivor count (dose: 335.0 mg/kg/injection, schedule: Q04DX003 (ip), vehicle: Klucel (hydroxypropylcellulose) (HPC)): 0 of 6

O=[N+]([O-])c1ccc(N2CCOCC2)c2c1no[n+]2[O-]
T/C (dose: 16.0 mg/kg/injection, schedule: Q04DX003 (ip), vehicle: saline with Tween-80): 126 % of control [6 of 7 alive]

Cc1nc(C(=O)O)c(=O)[nH]c1C
survivor count [7]: 0 of 6 | survivor count (dose: 400.0 mg/kg/injection, schedule: Q04DX003 (ip), vehicle: water): 0 of 6

Nc1nc(N)c2cc(Sc3ccc4ccccc4c3)ccc2n1
T/C [1]: 148 % of control

Cc1c2oc3c(C)ccc(C(=O)NC4C(=O)NC(C(C)C)C(=O)N5CCC5C(=O)N(C)CC(=O)N(C)C(C(C)C)C(=O)OC4C)c3nc-2c(C(=O)NC2C(=O)NC(C(C)C)C(=O)N3CCC3C(=O)N(C)CC(=O)N(C)C(C(C)C)C(=O)OC2C)c(N)c1=O (stereo not given) (I: TV[Aze][Sar][NMeV] / II: TV[Aze][Sar][NMeV]; ester I:1-I:C, II:1-II:C; linker I:N-II:N via Actinocin(9to1); configuration not given here)
T/C (dose: 0.9 mg/kg/injection, schedule: Q04DX003 (ip), vehicle: saline): 138 % of control | T/C (dose: 1.3 mg/kg/injection, schedule: Q04DX003 (ip), vehicle: saline): 129 % of control | T/C (dose: 150.0 micrograms/kg/injection, schedule: Q04DX003 (ip), vehicle: saline + alcohol): 142 % of control | T/C (dose: 225.0 micrograms/kg/injection, schedule: Q04DX003 (ip), vehicle: saline + alcohol): 126 % of control | T/C (dose: 300.0 micrograms/kg/injection, schedule: Q04DX003 (ip), vehicle: saline + alcohol): 185 [7 of 8 alive], 212, 242, 256 % of control | T/C (dose: 600.0 micrograms/kg/injection, schedule: Q04DX003 (ip), vehicle: saline + alcohol): 132, 215, 270, 297, 302 % of control | T/C (dose: 1200.0 micrograms/kg/injection, schedule: Q04DX003 (ip), vehicle: saline + alcohol): 145 % of control [7 of 8 alive]
